Assay results from the supplement of paper PMC12067093, “Discovery and optimisation of a covalent ligand for TRIM25 and its application to targeted protein ubiquitination” (Chemical Science, 2025).
The list shows a part of the results.

Compound: CC1Cc2ccccc2N1C(=O)C1CCCN(C1)C(=O)CCl (mixture of isomers) [TRIM25 ligand 11 (diastereomer mixture)]
Assay: probe-labelled cysteine peptide fold change vs DMSO (competition) (log2 fold change); higher = less target engagement (more negative = stronger competition)
Conditions: 10 µM; THP-1; incubation time: 4 h
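Note: competitive chemoproteomic profiling in live THP-1 cells with an iodoacetamide desthiobiotin (IA-DTB) probe, comparing probe-labelled peptide intensities in compound-treated cells against DMSO-treated controls.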

Target | probe-labelled cysteine peptide fold change
KBTBD11_O94819_483+485_RDEWQECPCSSSR (UniProt O94819) | 0.153
KANK2_Q63ZY3_562_QECQLSR (UniProt Q63ZY3) | -0.0566
KDSR_Q06136_47_CIAIECYK (UniProt Q06136) | -0.18
KAT8_Q9H7Z6_63_GEPEVTVEIGETYLCR (UniProt Q9H7Z6) | 0.0574
KDM2B_Q8NHM5_1278_DSLTEINLSDCNK (UniProt Q8NHM5) | 0.0507
KDM4A_O75164_798_ANDDRWVHVSCAVAILEAR (UniProt O75164) | 0.167
KDM3B_Q7LBC6_1045_EMCDVCETTLFNIHWVCR (UniProt Q7LBC6) | 0.283
KAT2A_Q92830_695_KVYPGLSCFK (UniProt Q92830) | -0.198
KARS_Q15046_434_AVECPPPR (UniProt Q15046) | 0.133
KANK2_Q63ZY3_389_SQEVVETMCPVPAAATSNVHMVK (UniProt Q63ZY3) | 0.0031
ITPK1_Q13572_126_KIEAYMEDDRICSPPFMELTSLCGDDTMR (UniProt Q13572) | -0.0554
KDM4A_O75164_560_VTVGEPCTR (UniProt O75164) | 0.0439
KDM4A_O75164_917_FYQCEVVR (UniProt O75164) | 0.279
KBTBD11_O94819_384_ARPSDQVFCYNPATDSWSAVRPLR (UniProt O94819) | 0.0415
ITPR1_Q14643_2536_EHTCETLLMCIVTVLSHGLR (UniProt Q14643) | 0.0876
KDM2A_Q9Y2K7_913_ELCECMR (UniProt Q9Y2K7) | 0.136
KDM3A_Q9Y4C1_497_VDNESCCSR (UniProt Q9Y4C1) | 0.428
ITPR1_Q14643_768_CMSDENLPYDLR (UniProt Q14643) | -0.028
KDM2A_Q9Y2K7_463_CLVDKLESLPLHK (UniProt Q9Y2K7) | -0.129

In another format: entries from further up.
Target	probe-labelled cysteine peptide fold change
KANK2_Q63ZY3_389_SQEVVETMCPVPAAATSNVHMVK (UniProt Q63ZY3)	0.0031
KDM2A_Q9Y2K7_913_ELCECMR (UniProt Q9Y2K7)	0.136

Remaining list, next part

Target | probe-labelled cysteine peptide fold change
KAT6B_Q8WYB5_837_GCHLVGYFSK (UniProt Q8WYB5) | 0.152
KANSL2_Q9H9L4_46_LEGQEFCIK (UniProt Q9H9L4) | 0.127
KDM1A_O60341_600_YTASGCEVIAVNTR (UniProt O60341) | 0.0657
KIF13B_Q9NQT8_1234_AEASWDSAVHGCPQLSR (UniProt Q9NQT8) | -0.0064
KDM3B_Q7LBC6_1034_EMCDVCETTLFNIHWVCR (UniProt Q7LBC6) | 0.102
KARS_Q15046_427_ILDDICVAK (UniProt Q15046) | -0.0694
KDELC2_Q7Z4H8_141_GPVYHEYCECPEDPQAWQK (UniProt Q7Z4H8) | 0.00254
KDELC1_Q6UW63_257_SNSNIHPIFSWCGSTDSK (UniProt Q6UW63) | 0.0289
JAK2_O60674_178_VPVTHETQEECLGMAVLDMMR (UniProt O60674) | -0.00582
KDM3A_Q9Y4C1_251_IVDPSLIHVEVVHDNLVTCGNSAR (UniProt Q9Y4C1) | -0.135
KEAP1_Q14145_489_LNSAECYYPER (UniProt Q14145) | 0.227
KEAP1_Q14145_273_CHSLTPNFLQMQLQK (UniProt Q14145) | 0.0276
IWS1_Q96ST2_749_ALRPGDPGFCAR (UniProt Q96ST2) | 0.00734
ITPR1_Q14643_1424_VVTHEDCIPEVK (UniProt Q14643) | 0.224
KDM1A_O60341_491_DLTALCK (UniProt O60341) | -0.0706
JMJD4_Q9H9V9_188_DWHLCR (UniProt Q9H9V9) | 0.0684
KDM3A_Q9Y4C1_467_AGVNSDSPNNCSGK (UniProt Q9Y4C1) | 0.0206
KEAP1_Q14145_624_QIDQQNCTC (UniProt Q14145) | 0.0249
